Record: PubChem BioAssay AID686937 (Drosophila RNAi Screening Center, 2013)
Screen: 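Genes in the fly needed for secretion of protein constitutively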 (primary screen). Cells: Drosophila S2 cells expressing secreted horseradish peroxidase. Reagents: long dsRNA against Drosophila genes. Duration: about 5.5 days (5 days dsRNA, then 12 h reporter induction). Challenge: reporter expression induced after 5 days of dsRNA, read 12 h later; inducer not stated. Measurement: 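After 5 days of dsRNA and 12 h of reporter induction, medium peroxidase read by chemiluminescence and scored as per-plate z-score; higher values mean more reporter released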. Scale: z-score: higher = more reporter secreted into medium.
The deposit covers about 23,000 reagents; below is a random part of those with a known target gene and a result. 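Reduced-secretion tags in replicate 1 do not always agree with the z-scores; no criterion for assigning the tags was given.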 Names joined by + are all predicted targets of the reagent. Not given: the amount of reagent.

| gene | DRSC id | z-score, replicate 1 | z-score, replicate 2 | phenotype, replicate 1 |
| --- | --- | --- | --- | --- |
| orion | DRSC18213 | 0.32 | 0.58 | – |
| orion | DRSC18214 | 0.35 | 0.6 | – |
| BomS1 | DRSC22678 | 0.39 | 0.27 | – |
| EMC5 | DRSC02469 | -0.14 | -0.15 | – |
| lncRNA:CR30121 | DRSC21481 | 0.03 | -0.03 | – |
| Spf30 | DRSC11976 | -0.75 | -0.57 | – |
| CG14551 | DRSC14894 | 0.13 | 0.16 | – |
| Fgop2 | DRSC02016 | -0.6 | -0.81 | – |
| rush | DRSC18568 | 0.17 | 0.11 | – |
| CG32161 | DRSC22128 | -0.61 | 0.07 | – |
| Ugt35A1 | DRSC16892 | 0.28 | 0.25 | – |
| BORCS7 + CG13430 | DRSC06392 | 0.46 | 0.26 | – |
| BORCS7 + CG13430 | DRSC06707 | -0.25 | 0.11 | – |
| Or2a | DRSC18690 | -0.07 | -0.56 | – |
| Miga | DRSC17821 | 0.36 | 0.44 | – |
| Nepl16 | DRSC14650 | 0.09 | 0.23 | – |
| Nlg3 | DRSC12477 | -0.4 | -0.07 | – |
| Nlg3 | DRSC12524 | 0.2 | 0.37 | – |
| Nlg3 | DRSC12540 | 0.05 | 0.03 | – |
| Nlg3 | DRSC12574 | 0 | -0.7 | – |
| meru | DRSC09400 | 0.2 | 0.18 | – |
| meru | DRSC09899 | -1.08 | -0.53 | – |
| meru | DRSC10215 | 0.22 | 0.31 | – |
| tal-1A + tal-2A + tal-AA + 1 more | DRSC12992 | 0.12 | 0.21 | – |
| CG43894 | DRSC09225 | 0.14 | -0.92 | – |
| CG43894 | DRSC10123 | -0.05 | -0.68 | – |
| Obp50e | DRSC06434 | -0.12 | -0.05 | – |
| CG31924 | DRSC00689 | 0.17 | 0.26 | – |
| CG13806 | DRSC08341 | 0.02 | 0.15 | – |
| tsr | DRSC04718 | -2.19 | -3.71 | reduced secretion |
| CG3880 | DRSC04428 | 0.11 | 0.15 | – |
| CG3880 | DRSC21404 | -0.04 | -0.31 | – |
| jeb | DRSC06305 | 0.2 | 0.5 | – |
| jeb | DRSC06307 | 0.34 | 0.46 | – |
| Dscam3 | DRSC14525 | 0.05 | 0.19 | – |
| Dscam3 | DRSC16376 | 0.34 | 0.49 | – |
| CG30278 | DRSC22787 | 2.3 | 0.39 | – |
| Ran | DRSC20364 | -4.92 | -3.95 | reduced secretion |
| Grip71 | DRSC02042 | 1.64 | 0.45 | – |
| Bre1 | DRSC09742 | -0.09 | 0.41 | – |
| Pp1alpha-96A | DRSC16795 | 0.44 | 0.54 | – |
| nolo | DRSC03705 | 0.23 | 0.2 | – |
| nolo | DRSC03719 | 0.1 | 0.06 | – |
| nolo | DRSC03720 | 0.39 | 0.33 | – |
| Rsbp15 | DRSC14176 | 0.51 | 0.35 | – |
| Sr-CI | DRSC00790 | 0.72 | 0.33 | – |
| CG5447 | DRSC15801 | -0.5 | -1.66 | – |
| Dpm1 | DRSC02018 | -0.07 | 0.15 | – |
| disp | DRSC12376 | 0.08 | 0.21 | – |
| Dhrs4 | DRSC09773 | 0.39 | 0.43 | – |
| Hrb27C | DRSC03347 | 0.33 | 0.03 | – |
| CG2924 | DRSC18525 | -0.23 | -0.1 | – |
| SerRS | DRSC00496 | -0.34 | -0.69 | – |
| CG8204 | DRSC07106 | 0.24 | -0.14 | – |
| CG14817 | DRSC18547 | 0.18 | 0.1 | – |
| eIF2alpha | DRSC20327 | -1.5 | -0.53 | reduced secretion |
| egh | DRSC18771 | -0.68 | 0.54 | – |
| mahj | DRSC04053 | -0.77 | -0.98 | – |
| AANATL4 | DRSC06774 | 0.08 | -0.1 | – |
| sxe2 | DRSC15692 | 0.3 | 0.44 | – |
| CG12490 | DRSC04123 | 0.08 | 0.07 | – |
| pug | DRSC17036 | 0.01 | 0.7 | – |
| CG10164 | DRSC14197 | -0.6 | 0.07 | – |
| CG43182 | DRSC17668 | 0.06 | -0.13 | – |
| Tgi | DRSC09793 | 0.57 | 0.37 | – |
| Tgi | DRSC09794 | 0.57 | 0.24 | – |
| stau | DRSC07698 | 0.29 | 0.38 | – |
| yip3 | DRSC04724 | 0.26 | 0.29 | – |
| whe | DRSC20537 | 0.28 | 0.3 | – |
| lmd | DRSC15618 | 0.03 | 0.06 | – |
| CG7110 | DRSC03011 | 0.23 | 0.16 | – |
| CG7110 | DRSC03012 | 0.21 | 0.33 | – |
| CG4360 | DRSC15566 | 0.27 | -0.15 | – |
| Spn28Db | DRSC22033 | 0.6 | -0.03 | – |
| SNRPG | DRSC20207 | -1.31 | -3.4 | – |
| CG43069 | DRSC05752 | 0.23 | 0.23 | – |
| lama | DRSC11361 | -0.25 | -0.07 | – |
| sphe | DRSC20203 | 0.46 | 0.13 | – |
| CG2533 | DRSC19855 | 0.48 | 0.55 | – |
| CG9590 | DRSC16506 | -0.03 | 0.26 | – |
| edl | DRSC06516 | 0.1 | 0.26 | – |
| Girdin | DRSC08292 | -0.16 | -0.04 | – |

Single entries from the list.
Under “z-score, replicate 1”, CG9590 [DRSC16506] reads -0.03
Entry for lama [DRSC11361] under “z-score, replicate 1”: -0.25
Tgi [DRSC09794], z-score, replicate 2 → 0.24
For “z-score, replicate 1”, orion [DRSC18213] shows 0.32
Result for SNRPG [DRSC20207] under “z-score, replicate 1”: -1.31
CG14817 [DRSC18547], z-score, replicate 2: 0.1
